Laboratory results: paper PMC5651247
No constants are given. Whether binding was seen depends on the method and setting. For part of these data: Binding seen in cells or lysates may run through a third protein.

T1: Factor H-related-5 (FHR-5), serum-derived (human (endogenous in serum)), Q9BXR6
T1 chain: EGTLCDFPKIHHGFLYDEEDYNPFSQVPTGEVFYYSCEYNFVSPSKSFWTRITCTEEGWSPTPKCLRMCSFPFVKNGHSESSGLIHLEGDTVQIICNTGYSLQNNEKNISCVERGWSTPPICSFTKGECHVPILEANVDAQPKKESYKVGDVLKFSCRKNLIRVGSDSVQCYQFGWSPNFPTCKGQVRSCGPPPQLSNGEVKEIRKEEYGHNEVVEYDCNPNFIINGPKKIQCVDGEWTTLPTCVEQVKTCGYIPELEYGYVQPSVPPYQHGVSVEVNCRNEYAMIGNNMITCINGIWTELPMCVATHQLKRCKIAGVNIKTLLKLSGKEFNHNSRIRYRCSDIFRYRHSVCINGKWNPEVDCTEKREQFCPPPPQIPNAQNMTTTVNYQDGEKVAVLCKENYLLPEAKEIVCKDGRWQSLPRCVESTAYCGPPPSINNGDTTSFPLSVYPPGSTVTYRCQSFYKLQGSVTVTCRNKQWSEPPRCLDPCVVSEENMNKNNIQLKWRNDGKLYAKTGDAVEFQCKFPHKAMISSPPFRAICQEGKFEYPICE

T2: Factor H-related-1 (FHR-1), serum-derived (human (endogenous in serum)), Q03591
T2 chain: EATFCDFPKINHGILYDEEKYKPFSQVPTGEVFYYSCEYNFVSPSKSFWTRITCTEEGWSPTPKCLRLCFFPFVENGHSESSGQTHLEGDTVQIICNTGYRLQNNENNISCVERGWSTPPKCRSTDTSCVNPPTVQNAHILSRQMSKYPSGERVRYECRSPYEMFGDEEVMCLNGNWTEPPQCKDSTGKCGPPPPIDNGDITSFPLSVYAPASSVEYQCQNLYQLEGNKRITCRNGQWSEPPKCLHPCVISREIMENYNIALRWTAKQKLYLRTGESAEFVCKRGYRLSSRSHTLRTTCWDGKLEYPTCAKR

T3: Factor H-related-2 (FHR-2), serum-derived (human (endogenous in serum)), P36980
T3 chain: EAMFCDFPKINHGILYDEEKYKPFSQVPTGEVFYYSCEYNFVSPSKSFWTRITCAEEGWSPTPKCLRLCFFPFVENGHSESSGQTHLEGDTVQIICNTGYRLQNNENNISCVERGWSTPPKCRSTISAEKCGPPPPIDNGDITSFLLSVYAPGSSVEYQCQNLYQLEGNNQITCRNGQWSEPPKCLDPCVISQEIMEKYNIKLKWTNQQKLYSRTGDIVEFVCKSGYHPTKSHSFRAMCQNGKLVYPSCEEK

B1: Factor H-related-1 (FHR-1), serum-derived, Q03591 19-330 (protein)
chain: T2 chain
B2: Factor H-related-2 (FHR-2), serum-derived, P36980 19-270 (protein)
chain: T3 chain
B3: Factor H-related-5 (FHR-5), serum-derived, Q9BXR6 19-569 (protein)
chain: T1 chain

Key:
Settings in all cases: remark: other sources report otherwise
[1] = target: T1, Factor H-related-5 (FHR-5), …; assay: sucrose gradient centrifugation; pooled human serum (NHS or CFHR3/CFHR1-deficient), diluted 1:2 in PBS, on 5–32.9% (w/v) sucrose in PBS, 20 h at 160,000g, 24 fractions; FHRs immunoprecipitated from the fractions with anti-FHR-5.5 and seen by Western blot; IgM, IgG and albumin as size references
[2] = target: T1, Factor H-related-5 (FHR-5), …; assay: co-IP; from 200 µL human serum of healthy donors with zero or two copies of CFHR1, without prior purification; anti-FH.02 (FHR-1), anti-FHR-2 or anti-FHR-5.1 on RM-19 Sepharose, PBS with 0.1% Tween-20, 0.1% BSA, 10 mM EDTA, o/n at 4°C; Western blot with anti-FHR-2.1 and anti-FHR-5.4
[3] = target: T1, Factor H-related-5 (FHR-5), …; assay: heparin affinity chromatography with ELISA of the fractions; 150 µL untreated serum (NHS or pooled CFHR3/CFHR1-deficient) in 10 mM NaPO4 pH 7.4 on a 1 mL HP Heparin column, linear gradient 0 to 2 M NaCl; dimers in the fractions measured by the dimer ELISAs
[4] = target: T2, Factor H-related-1 (FHR-1), …; assay: co-IP; from 200 µL human serum of healthy donors with zero or two copies of CFHR1, without prior purification; anti-FH.02 (FHR-1), anti-FHR-2 or anti-FHR-5.1 on RM-19 Sepharose, PBS with 0.1% Tween-20, 0.1% BSA, 10 mM EDTA, o/n at 4°C; Western blot with anti-FHR-2.1 and anti-FHR-5.4
[5] = target: T3, Factor H-related-2 (FHR-2), …; assay: as above

Row | Binder | binding [1] | binding [2] | binding [3] | binding [4] | binding [5]
1 | B1 | no binding | no binding | no binding |  | 
2 | B2 |  | no binding |  |  | 
3 | B3 |  |  |  | no binding | no binding
